Primary screen of a compound library

Mtb growth Cornell: 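Whole-cell assay for inhibitors of Mycobacterium tuberculosis growth, labelled Cornell in the record; the read-out is not stated. The concentration is filed as 10 mM, unlikely as a test dose, so the dose is not known. Higher means stronger inhibition (inferred from two other growth screens of the library). Size under these conditions: about 53,000 compounds, about 900 of them at 50% or above in at least one test.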
Mtb heat-shock: 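Assay on Mycobacterium tuberculosis, filed only as a heat shock assay from Cornell; the read-out is not stated. The concentration is filed as 10 mM, unlikely as a test dose, so the dose is not known. Higher reads as stronger inhibition (inferred: compounds with an IC50 in retests scored well above the rest). About 69,000 compounds were tested under these conditions; 1.4% (about 930) showed 50% or more at least once.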

Each number is a percent effect as filed.
How 0% and 100% were set is not recorded. Most values in the screen are low, and negative values occur.
Compounds were drawn at random from those tested, without regard to their results.

With CNC(=O)CN1CCCC12CCN(C(=O)c1ccc(F)cc1)CC2.O=C(O)C(F)(F)F the screen gave Mtb growth Cornell: 4.574%; Mtb heat-shock: -33.92%.
With CN(Cc1ccccc1)C1(C(=O)NC(CO)CO)Cc2ccccc2C1 the screen gave Mtb growth Cornell: -0.8117%; Mtb heat-shock: -11%.
With O=C(c1cccc(S(=O)(=O)NCCCc2ncc[nH]2)c1)N1CCOCC1 the screen gave Mtb growth Cornell: -8.548%; Mtb heat-shock: -1.964%.
With Cc1cc(C)c(C(=O)Nc2cccc(CN3CCC(CO)CC3)c2)o1 the screen gave Mtb growth Cornell: -6.618%; Mtb heat-shock: -6.048%.
With CC(=O)N1CCC(NC2(Cc3cc(C(C)(C)O)on3)COC2)CC1 the screen gave Mtb growth Cornell: -11.39%; Mtb heat-shock: 6.478%.
With COc1ccc(CC(=O)NC(C)c2nc3cccnc3n2C(C)C)cc1 (centres unmarked) the screen gave Mtb growth Cornell: 2.015%; Mtb heat-shock: -22.89%.
With O=C(Nc1nnc(C(F)F)s1)NC(CCO)c1cccs1 (centres unmarked) the screen gave Mtb heat-shock: -26.89%.
With CNS(=O)(=O)c1ccc(CN2CCCN(Cc3ccncc3)CC2)cc1 the screen gave Mtb growth Cornell: -65.94%; Mtb heat-shock: -28.26%.
With O=C(O)C(F)(F)F.O=C(O)C(F)(F)F.[H][C@@]12COC[C@H](C(=O)NCc3ccccn3)[C@]1([H])CN(CC1CC1)C2 the screen gave Mtb growth Cornell: 4.975%; Mtb heat-shock: 4.827%.
With CCOCC1CN(C(=O)N(C)C)Cc2nnn(CC3CC3)c21 (centres unmarked) the screen gave Mtb growth Cornell: 28.21%; Mtb heat-shock: 1.23%.
With OCCCN1CCc2[nH]nc(C(c3ccccc3)c3ccccc3)c2C1 the screen gave Mtb growth Cornell: -6.335%; Mtb heat-shock: 2.002%.
With Cc1noc(-c2ccc(N3CCC(C(=O)N4CCCC4)CC3)nc2)n1 the screen gave Mtb growth Cornell: -22.11%; Mtb heat-shock: 9.67%.
With CCC(C)(N)c1nc(=O)c(C(C)C)c(C)[nH]1.Cl (centres unmarked) the screen gave Mtb heat-shock: -29.21%.
With OCC1CCCN1c1cc(NCCNc2ccccn2)ncn1 (centres unmarked) the screen gave Mtb growth Cornell: -48.1%; Mtb heat-shock: -19.87%.
With COc1cc(C(=O)NS(=O)(=O)c2cccc(C#N)c2)cc(Cl)c1OC the screen gave Mtb growth Cornell: 12.74%; Mtb heat-shock: -1.963%.
With CS(=O)(=O)NC1CCCN(C(=O)Nc2cccnc2N2CCCC2)C1 (centres unmarked) the screen gave Mtb growth Cornell: -38.4%; Mtb heat-shock: -4.9%.
With CCn1nc(C)c2nc(C(C)C)nc(N3CCN(C)CC3)c21 the screen gave Mtb growth Cornell: -29.43%; Mtb heat-shock: -13.57%.
With Cc1cnn(CC2CCCCN2Cc2nnc(-c3ccco3)o2)c1 (centres unmarked) the screen gave Mtb growth Cornell: -2.064%; Mtb heat-shock: 8.947%.
With O=C(O)C(F)(F)F.[H][C@@]12COC[C@]1([H])[C@@H](OCC1CCOCC1)CN2Cc1ccc(OC)cc1 the screen gave Mtb growth Cornell: 43.9%; Mtb heat-shock: -11.5%.
With Cc1ccc(F)cc1-n1c(CCCN2CCOCC2)n[nH]c1=O the screen gave Mtb heat-shock: -22.98%.
With Cc1nc(CNCC2CCCN2c2cccnn2)oc1C (centres unmarked) the screen gave Mtb growth Cornell: 5.973%; Mtb heat-shock: -4.447%.
With COc1ccc(C)cc1-n1cnnc1CC1CCNCC1 the screen gave Mtb growth Cornell: -7.956%; Mtb heat-shock: 22.13%.
With N#Cc1ccc(N2CCCN(CC(=O)N3CCOCC3)CC2)cc1 the screen gave Mtb heat-shock: -14.42%.
With Cc1ncnc2c1CCN(C(=O)c1cccnc1)CC2 the screen gave Mtb growth Cornell: -24.64%; Mtb heat-shock: -2.777%.
With Cc1cc(C)c2c(c1)C(NC(=O)CSCc1ccncc1)CCO2 (centres unmarked) the screen gave Mtb heat-shock: -18.73%.
With COc1c(CNCCNC(=O)c2ccco2)c(C)nn1C the screen gave Mtb growth Cornell: 9.696%; Mtb heat-shock: 18.24%.
With O=C(NCc1nnc2n1CCCC2)N1CCc2ccccc2C1 the screen gave Mtb heat-shock: 11.13%.
With O=C(O)C(F)(F)F.O=C(c1cccnc1)N1CCC2(CCN(C(=O)N3CCCC3)CC2)C1 the screen gave Mtb growth Cornell: -3.83%; Mtb heat-shock: 2.065%.
With Cc1nc(C)n(CC2CCCN(CCOc3ccccc3C#N)C2)n1 (centres unmarked) the screen gave Mtb growth Cornell: -18.04%; Mtb heat-shock: -32.08%.
With CCN1CCC(NC(=O)NCC(O)c2ccc(Cl)c(F)c2)CC1 (centres unmarked) the screen gave Mtb heat-shock: 7.29%.
With Cc1cc(C(F)(F)F)nn1CCCNC(=O)C1CCN(S(C)(=O)=O)CC1 the screen gave Mtb growth Cornell: 12.93%; Mtb heat-shock: 6.903%.
With O=C(O)C(F)(F)F.O=C(O)C(F)(F)F.[H][C@]12CCC[C@@]1(COc1cccnc1)CN(C1CCOCC1)C2 the screen gave Mtb growth Cornell: 2.445%; Mtb heat-shock: 13.84%.
With CN(C)c1cc2c(nn1)CCN(C(=O)c1cc3ccccc3[nH]c1=O)C2 the screen gave Mtb heat-shock: 3.957%.
With O=C(O)C(F)(F)F.[H][C@@]12CCN(Cc3ccc(C)o3)C[C@]1(C(=O)N1CCCO1)CCO2 the screen gave Mtb growth Cornell: 14.65%; Mtb heat-shock: -31.08%.
With CC(C)COC(=O)N1CC(=O)N(Cc2ccc(Cl)cc2)CC(O)C1 (centres unmarked) the screen gave Mtb growth Cornell: -5.11%; Mtb heat-shock: 47.42%.
With CC(C)n1ccnc1CN1CCCN(C(=O)c2nccnc2N)CC1 the screen gave Mtb growth Cornell: 23.41%; Mtb heat-shock: 31.44%.
With COc1cc2c(nn1)CCN(Cc1ncc(C(C)(C)C)o1)C2 the screen gave Mtb heat-shock: 17.12%.
With CCN1CCN(CCNC(=O)c2sc(C)nc2C)CC1 the screen gave Mtb heat-shock: -5.484%.
With O=C(c1cnc2c(cnn2C2CCCC2)c1)N1CCN(CCO)CC1 the screen gave Mtb growth Cornell: -22.81%; Mtb heat-shock: -15.79%.
With CN(C)C(=O)CN1CCC2(CCN(S(=O)(=O)C3CC3)CC2)C1=O the screen gave Mtb growth Cornell: 18.68%; Mtb heat-shock: 6.605%.
With Cc1cc(C)n(C2CN(CC(=O)N(C)Cc3ccco3)C2)n1 the screen gave Mtb growth Cornell: -1.246%; Mtb heat-shock: -31.89%.
With Cn1ncc(C(=O)N2CCN(S(C)(=O)=O)CC2)c1Cl the screen gave Mtb heat-shock: -8.713%.
With COc1cc2cc3c(nc2cc1OC)OCCN(CC1CC1)C3 the screen gave Mtb growth Cornell: 7.159%; Mtb heat-shock: -28.1%.
With N#Cc1c2n(c3c(N)ncnc13)CCCCC2 the screen gave Mtb growth Cornell: -10.11%; Mtb heat-shock: -4.532%.
With Cc1cc(C2CCCN(CCCNS(C)(=O)=O)C2)n[nH]1 (centres unmarked) the screen gave Mtb growth Cornell: 7.019%; Mtb heat-shock: 12.59%.
With CCOc1c(Cl)cccc1NCc1cc(C)on1 the screen gave Mtb growth Cornell: 15.54%; Mtb heat-shock: 39.63%.
With CC(c1ccon1)N(C)S(=O)(=O)NCc1ccccc1 (centres unmarked) the screen gave Mtb growth Cornell: 22.78%; Mtb heat-shock: 8.545%.
With CCc1nc(CN(C(C)=O)C2CCN(CC3CCOCC3)C2)no1 (centres unmarked) the screen gave Mtb heat-shock: -10.2%.

From ChEMBL document CHEMBL3988442, “University of Dundee, Small-Polar-MMV Screening Library” (2021).